# Reference: publication PMC3975400
# By UniProt entry, the sequences of proteins in these tests, tags left out. Where a name states a change or a piece, a line headed by the entry shows the natural chain unless it says otherwise. Chains listed by the source or under a name are the forms on record and can include a tag or linker.
# HA tagged PKM1 (P14618-2, form named): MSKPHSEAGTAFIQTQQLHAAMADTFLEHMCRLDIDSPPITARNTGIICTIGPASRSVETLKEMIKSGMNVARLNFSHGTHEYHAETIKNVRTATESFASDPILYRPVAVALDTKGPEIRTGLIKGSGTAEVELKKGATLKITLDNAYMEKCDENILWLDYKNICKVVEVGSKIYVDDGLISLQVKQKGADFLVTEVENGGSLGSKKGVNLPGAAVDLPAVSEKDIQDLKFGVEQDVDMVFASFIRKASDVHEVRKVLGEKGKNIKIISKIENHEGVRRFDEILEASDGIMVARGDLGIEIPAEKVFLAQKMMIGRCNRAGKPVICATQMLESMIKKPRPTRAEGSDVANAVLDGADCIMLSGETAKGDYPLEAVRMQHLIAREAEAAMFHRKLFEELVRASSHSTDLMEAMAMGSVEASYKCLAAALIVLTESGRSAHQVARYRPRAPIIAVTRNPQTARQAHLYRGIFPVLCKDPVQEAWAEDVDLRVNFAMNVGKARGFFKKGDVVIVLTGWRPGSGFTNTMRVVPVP
# No constants are given. Whether binding was seen depends on the method and setting. Binding seen in cells or lysates may run through a third protein. Some binding calls cover weakened binding; strength is not graded here. Sequences can lack the tags named with a protein.
# Biological target: T1, Flag-tagged HNF4α (UniProt P41235)
# T1 sequence: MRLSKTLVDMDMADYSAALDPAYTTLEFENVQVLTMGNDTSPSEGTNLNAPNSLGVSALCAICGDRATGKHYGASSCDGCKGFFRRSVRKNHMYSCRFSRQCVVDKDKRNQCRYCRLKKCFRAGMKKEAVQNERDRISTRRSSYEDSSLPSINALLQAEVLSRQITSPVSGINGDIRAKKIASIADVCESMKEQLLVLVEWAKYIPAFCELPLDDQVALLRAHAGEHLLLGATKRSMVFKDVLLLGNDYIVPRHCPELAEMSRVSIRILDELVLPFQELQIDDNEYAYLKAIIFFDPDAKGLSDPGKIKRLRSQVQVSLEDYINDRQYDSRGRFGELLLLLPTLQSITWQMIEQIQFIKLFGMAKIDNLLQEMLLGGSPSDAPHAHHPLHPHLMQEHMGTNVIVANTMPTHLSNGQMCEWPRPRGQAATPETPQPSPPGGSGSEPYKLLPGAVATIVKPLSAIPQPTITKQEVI
# Assay: co-IP; 200 μg lysate of co-transfected HCT116 cells; precleared with agarose A and G; IgG or Flag antibody for immunoprecipitation, 3 h at 4 °C; Western blot with anti-HA antibody
row,binding,Substance
1,binds,HA tagged PKM1 (from UniProt P14618-2 1-531) (enzyme)
2,no binding,HA tagged PKM2 (from UniProt P14618-1 1-531) (enzyme)
